Literature values in US12582654B2, “Cyano-substituted pyridine and cyano-substituted pyrimidine compound and preparation method therefor and application thereof” (BEIJING SCITECH-MQ PHARMACEUTICALS LIMITED, priority 2019, dated 2026).

Tested on: each subtype of FGFR
Conditions: cited from earlier work

SMILES: C=CC(=O)N1CC[C@H](n2nc(C#Cc3cc(OC)cc(OC)c3)c3c(N)ncnc32)C1 [TAS-120]
- enzymatic inhibitory activity against each subtype of FGFR: nanomolar levels
